Source: PubChem BioAssay AID1259254 (NCATS, 2017)

- Purpose: 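Genome-wide screen for genes that prevent DNA re-replication in cancer cells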 (primary screen)
- Cells: human HCT116 colorectal cancer cells
- Reagents: single siRNA against human genes
- Time to read-out: 3 days
- Measurement: 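Nuclei stained with Hoechst and imaged; cell-cycle phase assigned by DNA content; G2 share scaled per plate, non-targeting siRNA 0%, GMNN siRNA 100%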
- Reading the numbers: G2 robust z-score and G2 cells, % of GMNN control: higher = more G2 cells, more excess DNA replication; raw share of cells in G2: higher = larger share of cells with G2 DNA content
- Call rule: 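Active siRNAs have a G2 robust z of 5 or more median absolute deviations over the median, which in these data means about 38% or higher of GMNN control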
The whole screen tested about 59,000 reagents; shown is an unselected part. About 1,550 of all reagents (2.6%) count as active. 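G2 share is only a proxy for re-replication; each gene was hit by three separate siRNAs, and active genes were retested.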 Raw values vary from plate to plate and are shown uncorrected. Reagents against one gene are numbered here. Not given: the amount of reagent.

target | reagent no. | G2 robust z-score | G2 cells, % of GMNN control | raw share of cells in G2 (%) | outcome
STMN1 (GeneID 3925) | 1 | -0.491 | -0.484 | 4.77 | inactive
STMN1 (GeneID 3925) | 2 | -0.0407 | 2.68 | 5.28 | inactive
STMN1 (GeneID 3925) | 3 | 0.35 | 5.43 | 5.32 | inactive
TASOR2 (GeneID 54906) | 1 | -0.935 | -3.61 | 2.31 | inactive
TASOR2 (GeneID 54906) | 2 | 0.253 | 4.75 | 6.27 | inactive
TASOR2 (GeneID 54906) | 3 | -0.64 | -1.54 | 2.68 | inactive
PARS2 (GeneID 25973) | 1 | -0.0751 | 2.44 | 7.27 | inactive
PARS2 (GeneID 25973) | 2 | -1.12 | -4.88 | 2.39 | inactive
PARS2 (GeneID 25973) | 3 | 0.762 | 8.33 | 6.95 | inactive
HFE (GeneID 3077) | 1 | 5.03 | 38.3 | 19 | active
HFE (GeneID 3077) | 2 | -0.261 | 1.13 | 4.62 | inactive
HFE (GeneID 3077) | 3 | 3.92 | 30.5 | 17.3 | inactive
ARHGEF16 (GeneID 27237) | 1 | 5.77 | 43.6 | 17 | active
ARHGEF16 (GeneID 27237) | 2 | 0.0921 | 3.62 | 5.24 | inactive
ARHGEF16 (GeneID 27237) | 3 | -0.631 | -1.47 | 3.99 | inactive
ANLN (GeneID 54443) | 1 | 3.91 | 30.5 | 14.5 | inactive
ANLN (GeneID 54443) | 2 | 5.86 | 44.2 | 22.9 | active
ANLN (GeneID 54443) | 3 | 8.54 | 63.1 | 24 | active

Entries above whose gene name starts with S or s:
target | reagent no. | G2 robust z-score | G2 cells, % of GMNN control | raw share of cells in G2 (%) | outcome
STMN1 (GeneID 3925) | 1 | -0.491 | -0.484 | 4.77 | inactive
STMN1 (GeneID 3925) | 2 | -0.0407 | 2.68 | 5.28 | inactive
STMN1 (GeneID 3925) | 3 | 0.35 | 5.43 | 5.32 | inactive

The list goes on.
target | reagent no. | G2 robust z-score | G2 cells, % of GMNN control | raw share of cells in G2 (%) | outcome
TAS1R1 (GeneID 80835) | 1 | -0.832 | -2.89 | 1.59 | inactive
TAS1R1 (GeneID 80835) | 2 | 0.132 | 3.9 | 6.06 | inactive
TAS1R1 (GeneID 80835) | 3 | 1.24 | 11.7 | 9.43 | inactive
AKAP13 (GeneID 11214) | 1 | -0.0708 | 2.47 | 7.36 | inactive
AKAP13 (GeneID 11214) | 2 | 1.36 | 12.6 | 8.17 | inactive
AKAP13 (GeneID 11214) | 3 | -0.716 | -2.07 | 3.46 | inactive
MSANTD4 (GeneID 84437) | 1 | 3.76 | 29.4 | 13.9 | inactive
MSANTD4 (GeneID 84437) | 2 | 0.00988 | 3.04 | 4.36 | inactive
MSANTD4 (GeneID 84437) | 3 | -0.435 | -0.0932 | 2.38 | inactive
ZNF680 (GeneID 340252) | 1 | 5.16 | 39.3 | 16.6 | active
ZNF680 (GeneID 340252) | 2 | 1.05 | 10.3 | 6.75 | inactive
ZNF680 (GeneID 340252) | 3 | 0.234 | 4.62 | 5.14 | inactive
KCTD14 (GeneID 65987) | 1 | -0.798 | -2.65 | 4.71 | inactive
KCTD14 (GeneID 65987) | 2 | -0.969 | -3.85 | 1.43 | inactive
KCTD14 (GeneID 65987) | 3 | -0.308 | 0.799 | 3.88 | inactive
KMT2A (GeneID 4297) | 1 | 10.9 | 79.8 | 37.1 | active
KMT2A (GeneID 4297) | 2 | -0.431 | -0.0634 | 5.34 | inactive
KMT2A (GeneID 4297) | 3 | -0.802 | -2.67 | 2.31 | inactive
MISP3 (GeneID 113230) | 1 | -0.482 | -0.424 | 1.69 | inactive
MISP3 (GeneID 113230) | 2 | -0.914 | -3.46 | 2.7 | inactive
MISP3 (GeneID 113230) | 3 | 0.998 | 9.99 | 6.31 | inactive
HMGN1P31 (GeneID 728111) | 1 | -0.437 | -0.107 | 3.56 | inactive
HMGN1P31 (GeneID 728111) | 2 | -0.429 | -0.0494 | 3.52 | inactive
HMGN1P31 (GeneID 728111) | 3 | 0.739 | 8.17 | 5.75 | inactive
GCNT2P1 (GeneID 644378) | 1 | 0.716 | 8 | 6.68 | inactive
GCNT2P1 (GeneID 644378) | 2 | 0.897 | 9.28 | 6.61 | inactive
GCNT2P1 (GeneID 644378) | 3 | 2.83 | 22.9 | 9.82 | inactive
ANKRD1 (GeneID 27063) | 1 | 1 | 10 | 7.67 | inactive
ANKRD1 (GeneID 27063) | 2 | 7.33 | 54.5 | 25.2 | active
ANKRD1 (GeneID 27063) | 3 | 0.121 | 3.82 | 4.46 | inactive
